No constants are given. Whether binding was seen depends on the method and setting. For some assays here: In cells and extracts the contact can be indirect. Some binding calls cover weakened binding; strength is not graded here.
T1: CD45 (Ptprc) (mouse (endogenous in primary B cells)) (UniProt P06800)
T1 sequence: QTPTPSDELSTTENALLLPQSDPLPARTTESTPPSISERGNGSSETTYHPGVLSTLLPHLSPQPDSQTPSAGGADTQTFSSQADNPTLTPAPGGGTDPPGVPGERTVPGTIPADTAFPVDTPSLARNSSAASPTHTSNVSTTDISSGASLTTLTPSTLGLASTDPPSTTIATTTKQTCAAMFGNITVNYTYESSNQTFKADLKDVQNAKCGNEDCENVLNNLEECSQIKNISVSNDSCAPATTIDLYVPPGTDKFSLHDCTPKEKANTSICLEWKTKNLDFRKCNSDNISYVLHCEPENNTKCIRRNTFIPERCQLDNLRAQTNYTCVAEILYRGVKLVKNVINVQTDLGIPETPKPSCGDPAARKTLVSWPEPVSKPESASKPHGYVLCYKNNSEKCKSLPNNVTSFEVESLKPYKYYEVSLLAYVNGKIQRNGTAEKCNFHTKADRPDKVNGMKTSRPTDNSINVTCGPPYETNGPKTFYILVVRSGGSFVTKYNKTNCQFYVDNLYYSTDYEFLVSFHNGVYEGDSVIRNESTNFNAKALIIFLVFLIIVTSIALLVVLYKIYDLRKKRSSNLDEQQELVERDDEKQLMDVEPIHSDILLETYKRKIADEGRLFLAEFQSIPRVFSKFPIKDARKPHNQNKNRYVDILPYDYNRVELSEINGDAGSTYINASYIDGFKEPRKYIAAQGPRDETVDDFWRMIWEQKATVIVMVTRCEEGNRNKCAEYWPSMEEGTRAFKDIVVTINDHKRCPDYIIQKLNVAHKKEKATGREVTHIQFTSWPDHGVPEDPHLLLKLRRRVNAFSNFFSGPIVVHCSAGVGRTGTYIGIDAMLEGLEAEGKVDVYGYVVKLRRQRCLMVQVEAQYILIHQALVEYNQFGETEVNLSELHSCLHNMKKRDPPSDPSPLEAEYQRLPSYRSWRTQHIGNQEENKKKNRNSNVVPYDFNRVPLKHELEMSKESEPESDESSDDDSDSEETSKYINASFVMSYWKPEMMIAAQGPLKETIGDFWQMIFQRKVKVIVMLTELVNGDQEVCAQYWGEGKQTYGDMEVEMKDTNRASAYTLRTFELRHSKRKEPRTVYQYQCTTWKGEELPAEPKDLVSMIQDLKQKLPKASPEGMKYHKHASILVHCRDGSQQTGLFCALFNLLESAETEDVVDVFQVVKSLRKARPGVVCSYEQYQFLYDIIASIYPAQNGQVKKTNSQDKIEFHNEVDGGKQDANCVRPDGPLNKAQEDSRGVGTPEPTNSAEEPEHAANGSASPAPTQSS

By UniProt entry, the sequences of proteins in these tests, tags left out.
UniProt O08573: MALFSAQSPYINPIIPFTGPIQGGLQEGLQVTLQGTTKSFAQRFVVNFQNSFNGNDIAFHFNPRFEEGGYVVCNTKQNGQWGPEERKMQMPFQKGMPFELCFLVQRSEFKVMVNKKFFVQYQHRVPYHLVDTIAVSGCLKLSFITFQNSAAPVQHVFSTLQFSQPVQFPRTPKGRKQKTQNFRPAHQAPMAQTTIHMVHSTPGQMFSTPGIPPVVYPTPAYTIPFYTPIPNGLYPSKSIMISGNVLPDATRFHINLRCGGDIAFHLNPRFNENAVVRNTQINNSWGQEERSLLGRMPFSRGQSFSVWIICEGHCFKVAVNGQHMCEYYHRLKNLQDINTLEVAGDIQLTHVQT

B1: CD45 (Ptprc) (protein, UniProt P06800 26-1293)
chain: QTPTPSDELSTTENALLLPQSDPLPARTTESTPPSISERGNGSSETTYHPGVLSTLLPHLSPQPDSQTPSAGGADTQTFSSQADNPTLTPAPGGGTDPPGVPGERTVPGTIPADTAFPVDTPSLARNSSAASPTHTSNVSTTDISSGASLTTLTPSTLGLASTDPPSTTIATTTKQTCAAMFGNITVNYTYESSNQTFKADLKDVQNAKCGNEDCENVLNNLEECSQIKNISVSNDSCAPATTIDLYVPPGTDKFSLHDCTPKEKANTSICLEWKTKNLDFRKCNSDNISYVLHCEPENNTKCIRRNTFIPERCQLDNLRAQTNYTCVAEILYRGVKLVKNVINVQTDLGIPETPKPSCGDPAARKTLVSWPEPVSKPESASKPHGYVLCYKNNSEKCKSLPNNVTSFEVESLKPYKYYEVSLLAYVNGKIQRNGTAEKCNFHTKADRPDKVNGMKTSRPTDNSINVTCGPPYETNGPKTFYILVVRSGGSFVTKYNKTNCQFYVDNLYYSTDYEFLVSFHNGVYEGDSVIRNESTNFNAKALIIFLVFLIIVTSIALLVVLYKIYDLRKKRSSNLDEQQELVERDDEKQLMDVEPIHSDILLETYKRKIADEGRLFLAEFQSIPRVFSKFPIKDARKPHNQNKNRYVDILPYDYNRVELSEINGDAGSTYINASYIDGFKEPRKYIAAQGPRDETVDDFWRMIWEQKATVIVMVTRCEEGNRNKCAEYWPSMEEGTRAFKDIVVTINDHKRCPDYIIQKLNVAHKKEKATGREVTHIQFTSWPDHGVPEDPHLLLKLRRRVNAFSNFFSGPIVVHCSAGVGRTGTYIGIDAMLEGLEAEGKVDVYGYVVKLRRQRCLMVQVEAQYILIHQALVEYNQFGETEVNLSELHSCLHNMKKRDPPSDPSPLEAEYQRLPSYRSWRTQHIGNQEENKKKNRNSNVVPYDFNRVPLKHELEMSKESEPESDESSDDDSDSEETSKYINASFVMSYWKPEMMIAAQGPLKETIGDFWQMIFQRKVKVIVMLTELVNGDQEVCAQYWGEGKQTYGDMEVEMKDTNRASAYTLRTFELRHSKRKEPRTVYQYQCTTWKGEELPAEPKDLVSMIQDLKQKLPKASPEGMKYHKHASILVHCRDGSQQTGLFCALFNLLESAETEDVVDVFQVVKSLRKARPGVVCSYEQYQFLYDIIASIYPAQNGQVKKTNSQDKIEFHNEVDGGKQDANCVRPDGPLNKAQEDSRGVGTPEPTNSAEEPEHAANGSASPAPTQSS

Legend:
[1] = molecular target: T1, CD45 (Ptprc) (mouse (endogenous in primary B cells)); test: far-Western; 25 µg whole-cell RIPA lysate resolved by 10% SDS-PAGE, transferred to PVDF, renatured in guanidine-HCl 6-0 M; 5 µg/mL FLAG-tagged rGal9 overnight at 4 °C; detected with anti-FLAG M2; reference blots for CD45 and IgM; only the binder purified
[2] = molecular target: FLAG-tagged recombinant galectin-9 (UniProt O08573); test: pull-down; 10 µg FLAG-tagged rGal9 on anti-FLAG beads; RIPA lysate (stringent lysis) of B cells from Gal9-KO mice, 3 h at 4 °C, with or without 50 mM D-lactose; elution with 200 mM D-lactose; immunoblot for CD45 and IgM; only the target purified

Row | Molecule | binding [1] | binding [2]
1 | FLAG-tagged recombinant galectin-9 (from UniProt O08573 1-353) | binds | –
2 | B1 | – | binds
